In PubChem BioAssay AID248 (DTP/NCI, 2004):
The list is a part of this screen's results and no random one: it gathers tests that were run many times, whatever their T/C, doses with no T/C, and many T/C values between a quarter and a half above the control. Further doses and runs are listed elsewhere. T/C: endpoint of the treated group in % of that of the vehicle group. Some entries give survivors of the animals treated and no T/C: the source holds a T/C of zero for them, seemingly a mark for toxic or unscored doses. Some doses without a T/C left all or most animals alive at the check, yet need not have been tolerated: the source hardly ever lists a survival T/C far under the control, and the zero likely stands for such cases as well. Counts of survivors are from the toxicity check (mostly the fifth day) where no day follows; animals may have died later. Schedule codes are those of the source, read here as Q, the interval in days (D) or hours (H), X, the number of doses. Some schedules carry Z or #; the key to these is not given. Some entries were tested several times; the values are given in rising order. Where survival is the endpoint, the PubChem record calls one and a half times the control and up active, and a quarter to a half above the control has no call in these data; cut-offs in other NCI protocols can differ. Additions like (4×) count equal records among those shown. Some T/C values are followed by the survivors on the day toxicity was checked, most often the fifth; where none is given, no animal had died by that day.

Test system: L1210 leukemia ip in BDF1 mice, survival T/C
Experiment: NCI In Vivo Anticancer Drug Screen. Data for tumor model L1210 Leukemia (intraperitoneal) in B6D2F1 (BDF1) mice
Details: T/C endpoint: mean survival time, higher T/C = longer survival
[1] = dose: 100.0 mg/kg/injection, schedule: Q04DX003 (ip), vehicle: Klucel (hydroxypropylcellulose) (HPC)
[2] = dose: 200.0 mg/kg/injection, schedule: Q04DX003 (ip), vehicle: Klucel (hydroxypropylcellulose) (HPC)
[3] = dose: 400.0 mg/kg/injection, schedule: Q04DX003 (ip), vehicle: Klucel (hydroxypropylcellulose) (HPC)
[4] = dose: 100.0 mg/kg/injection, schedule: Q04DX002 (ip), vehicle: Klucel (hydroxypropylcellulose) (HPC)
[5] = dose: 400.0 mg/kg/injection, schedule: Q01DX009 (ip), vehicle: Klucel (hydroxypropylcellulose) (HPC)
[6] = dose: 100.0 mg/kg/injection, schedule: Q01DX009 (ip), vehicle: saline with Tween-80
[7] = dose: 200.0 mg/kg/injection, schedule: Q01DX009 (ip), vehicle: saline with Tween-80
[8] = dose: 300.0 mg/kg/injection, schedule: Q01DX001 (ip), vehicle: saline

For `BrC1CCCCCC(Br)C12OCCO2` (stereo unspecified), the survivor count [1] was 0 of 6, the survivor count [2] was 0 of 6 and the survivor count [3] was 0 of 6.

With `CCCC[As](=O)(O)CC` the survivor count (dose: 50.0 mg/kg/injection, schedule: Q01DX009 (ip), vehicle: saline) was 2 of 3, the survivor count (dose: 100.0 mg/kg/injection, schedule: Q01DX009 (ip), vehicle: saline) was 0 of 3 and 5 of 6 and the survivor count (dose: 200.0 mg/kg/injection, schedule: Q01DX009 (ip), vehicle: saline) was 0 of 6. For the same compound, the survivor count (dose: 400.0 mg/kg/injection, schedule: Q01DX009 (ip), vehicle: saline) was 0 of 6.

`CSC(NC(=O)c1ccc([N+](=O)[O-])cc1)C(N)=O` (stereo unspecified) was tested, and the survivor count (dose: 25.0 mg/kg/injection, schedule: Q04DX002 (ip), vehicle: Klucel (hydroxypropylcellulose) (HPC)) was 3 of 3 and the T/C [4] was 125 % of control.

In the case of `CCCCN(CCCC)CCCNC(=S)Nc1ccccc1`, the survivor count [5] was 0 of 6.

In the case of `CC(=O)C(C(C)=O)C(c1ccccc1)C(C(C)=O)C(C)=O`, the survivor count [5] was 3 of 6.

In the case of `O=c1ccc2c(COc3ccc(Cl)cc3Cl)c3ccc(O)cc3oc-2c1`, the survivor count [3] was 3 of 6.

With `CCCCCCCCCCCCCCCCOP(=O)(O)OCCCCCCCCCCCCCCCC` the survivor count [6] was 6 of 6 and the survivor count [7] was 6 of 6.

`CC(C)=C1CCC(C)C/C1=N\N=C(N)N` (stereo unspecified) was tested, and the survivor count (dose: 120.0 mg/kg/injection, schedule: Q01DX Z (ip), vehicle: carboxymethylcellulose (CMC)) was 0 of 6 and the survivor count (dose: 960.0 mg/kg/injection, schedule: Q01DX Z (oral), vehicle: carboxymethylcellulose (CMC)) was 0 of 6.

For `OCC1SC(n2cnc3c(=S)nc[nH]c32)C(O)C1O` (stereo unspecified), the T/C (dose: 100.0 mg/kg/injection, schedule: Q01DX005 (ip), vehicle: saline) was 139 % of control.

`NC(N)=N/N=C/c1ccc([N+](=O)[O-])cc1` was tested, and the survivor count (dose: 120.0 mg/kg/injection, schedule: Q01DX Z (ip), vehicle: saline) was 3 of 6 and the survivor count (dose: 240.0 mg/kg/injection, schedule: Q01DX Z (oral), vehicle: other) was 4 of 6.

For `CCC(C)(C)C(=O)OCc1ccccc1`, the T/C [4] was 125 % of control.

For `C1=N/C=C\C=C/c2ccc[n+](CCCCC[n+]3ccccc3-c3ccccn3)c21`, the survivor count (dose: 75.0 mg/kg/injection, schedule: Q01DX001 (ip), vehicle: saline) was 0 of 6, the survivor count (dose: 150.0 mg/kg/injection, schedule: Q01DX001 (ip), vehicle: saline) was 0 of 6 and the survivor count [8] was 0 of 6.

In the case of `CC(C)C[As](=O)(O)O`, the survivor count [3] was 3 of 6.

In the case of `CCC1(O)CC(OC2CC(N(C)C)C(OC3CC4OC5CC(=O)C(C)OC5OC4C(C)O3)C(C)O2)c2c(cc3c(c2O)C(=O)c2c(O)ccc(O)c2C3=O)C1C(=O)OC` (stereo unspecified), the survivor count (dose: 0.75 mg/kg/injection, schedule: Q01DX009 (ip), vehicle: saline with Tween-80) was 10 of 10, the survivor count (dose: 1.5 mg/kg/injection, schedule: Q01DX009 (ip), vehicle: saline with Tween-80) was 10 of 10 and the T/C (dose: 1.5 mg/kg/injection, schedule: Q03HX008 (ip), vehicle: saline with Tween-80) was 129 % of control. The survivor count (dose: 3.0 mg/kg/injection, schedule: Q01DX009 (ip), vehicle: saline with Tween-80) was 10 of 10, the survivor count (dose: 3.0 mg/kg/injection, schedule: Q01DX015 (ip), vehicle: saline) was 2 of 6 and the T/C (dose: 4.0 mg/kg/injection, schedule: Q01DX001 (ip), vehicle: saline) was 130 % of control. For the same compound, the T/C (dose: 4.0 mg/kg/injection, schedule: Q04DX003 (ip), vehicle: saline with Tween-80) was 136 % of control, the survivor count (dose: 5.0 mg/kg/injection, schedule: Q01DX015 (ip), vehicle: saline) was 0 of 6 and the T/C (dose: 5.0 mg/kg/injection, schedule: Q04DX003 (ip), vehicle: saline) was 145 % of control. The T/C (dose: 6.0 mg/kg/injection, schedule: Q01DX001 (ip), vehicle: saline) was 144 % of control, the survivor count (dose: 6.0 mg/kg/injection, schedule: Q01DX009 (ip), vehicle: saline with Tween-80) was 5 of 10 and 9 of 10 and the T/C (dose: 6.25 mg/kg/injection, schedule: Q01DX001 (ip), vehicle: saline) was 139 % of control. The T/C (dose: 9.0 mg/kg/injection, schedule: Q01DX001 (ip), vehicle: saline) was 149 % of control [5 of 6 alive], the survivor count (dose: 12.0 mg/kg/injection, schedule: Q04DX003 (ip), vehicle: saline with Tween-80) was 3 of 6 and 10 of 10 and the survivor count (dose: 12.5 mg/kg/injection, schedule: Q01DX001 (ip), vehicle: saline) was 1 of 4. For the same compound, the survivor count (dose: 25.0 mg/kg/injection, schedule: Q01DX001 (ip), vehicle: saline) was 0 of 4 and the survivor count (dose: 50.0 mg/kg/injection, schedule: Q01DX001 (ip), vehicle: saline) was 0 of 4.

`CC1(CCCc2ccc([N+](=O)[O-])cc2)N=C(N)N=C(N)N1c1ccccc1` (stereo unspecified) was tested, and the survivor count [1] was 4 of 6, the survivor count [2] was 1 of 6 and the survivor count [3] was 0 of 6.

With `C=CCN(Cc1cnc2nc(N)nc(N)c2n1)c1ccc(C(=O)NC(CCC(=O)O)C(=O)O)cc1` (stereo unspecified) the T/C (dose: 12.0 mg/kg/injection, schedule: Q01DX009 (ip), vehicle: sodium bicarbonate) was 133 % of control.

`CCOC(=O)c1ccc(NC(=O)N(C2CCCCC2)C2CCCCC2)cc1` was tested, and the survivor count (dose: 100.0 mg/kg/injection, schedule: Q04DX003 (ip), vehicle: saline with Tween-80) was 6 of 6.

`O=C1C(=O)c2ccccc2C(O)=C1C(CCc1ccccc1)C1=C(O)c2ccccc2C(=O)C1=O` was tested, and the survivor count (dose: 150.0 mg/kg/injection, schedule: Q01DX001 (ip), vehicle: carboxymethylcellulose (CMC)) was 1 of 6, the survivor count (dose: 300.0 mg/kg/injection, schedule: Q01DX001 (ip), vehicle: carboxymethylcellulose (CMC)) was 0 of 6 and the survivor count [8] was 2 of 6.

With `COC(=O)N1C(C)=CC=CC=C1C` the survivor count (dose: 200.0 mg/kg/injection, schedule: Q04DX002 (ip), vehicle: Klucel (hydroxypropylcellulose) (HPC)) was 0 of 3 and the survivor count (dose: 400.0 mg/kg/injection, schedule: Q04DX002 (ip), vehicle: Klucel (hydroxypropylcellulose) (HPC)) was 0 of 3.

For `CC(C)(C)C(=O)OCn1cnc2c(=N)n(O)cnc21`, the survivor count [3] was 6 of 6.

`NC(=O)c1ccccn1` was tested, and the survivor count [1] was 3 of 6 and the survivor count [3] was 2 of 6.

`CCOc1ccc(NC(=S)NC(=O)C(C)Oc2ccccc2)cc1` (stereo unspecified) was tested, and the T/C [6] was 91 (2×), 92, 96 % of control, the T/C (dose: 100.0 mg/kg/injection, schedule: Q04DX002 (ip), vehicle: saline with Tween-80) was 87, 95, 96, 104 % of control and the T/C [7] was 91, 93, 97, 168 % of control. For the same compound, the T/C (dose: 200.0 mg/kg/injection, schedule: Q04DX002 (ip), vehicle: saline with Tween-80) was 87, 94, 95, 104 % of control, the T/C (dose: 400.0 mg/kg/injection, schedule: Q01DX009 (ip), vehicle: saline with Tween-80) was 87, 93, 101, 106 % of control and the T/C (dose: 400.0 mg/kg/injection, schedule: Q04DX002 (ip), vehicle: saline with Tween-80) was 88, 97, 102, 161 % of control.

`CC12CCC3C(C1)C(C(=O)O2)C(=O)OC3(C)C` (stereo unspecified) was tested, and the survivor count (dose: 300.0 mg/kg/injection, schedule: Q01DX009 (ip), vehicle: Klucel (hydroxypropylcellulose) (HPC)) was 0 of 6.
